Results deposited as PubChem BioAssay AID504774 (Drosophila RNAi Screening Center, 2011)
Aim: 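Genes required for cells to withstand methyl methanesulphonate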 (primary screen). Cell system: Drosophila Kc167 cells. Reagent: long dsRNA against Drosophila genes, about 0.25 µg dsRNA per well. Timing: about 6 days: 3 days knock-down, then 3 days with or without MMS. Treatment: methyl methanesulphonate 0.004% (w/v) for 3 days after knock-down. Read-out: 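Viability in wells given MMS, read as ATP luminescence, normalised by quantiles plate by plate and averaged across replicates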. Direction: mean viability with MMS and viability with MMS: higher = more surviving cells after MMS.
In all, the deposit lists about 23,000 reagents; this is an unselected part of those with a known target gene and a result. 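Values are quantile-normalised luminescence on an arbitrary scale; higher means more cells surviving MMS.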 Names joined by + are all predicted targets of the reagent. Further read-outs or replicates are left out here. No sequences are given here.

With knock-down of Polr2K (RNA polymerase II, I and III subunit K) [DRSC05535] the results were mean viability with MMS 3.48e6; viability with MMS, replicate 1 = 3.91e6.
Gr93d (Gustatory receptor 93d) [DRSC21941] scored mean viability with MMS 3.54e6; viability with MMS, replicate 1 = 4.02e6.
After knock-down of CG31100 [DRSC14453], the record shows mean viability with MMS 3.54e6; viability with MMS, replicate 1 = 3.98e6.
CG31100 [DRSC14455] showed mean viability with MMS 3.72e6; viability with MMS, replicate 1 = 4.07e6.
CR42745 (retired record) [DRSC13756] showed mean viability with MMS 3.46e6; viability with MMS, replicate 1 = 3.92e6.
Knock-down of CG42789 [DRSC13793] resulted in: mean viability with MMS 1.78e6; viability with MMS, replicate 1 = 4.03e6.
After knock-down of l(3)62Be (retired record) [DRSC08231], the record shows mean viability with MMS 3.55e6; viability with MMS, replicate 1 = 3.95e6.
Against Obp19b (Odorant-binding protein 19b) [DRSC20536] the deposit lists mean viability with MMS 3.62e6; viability with MMS, replicate 1 = 4.08e6.
Silencing of His3:CG33818 + His3:CG33857 + His3:CG33806 + 20 more [DRSC21267] came out at: mean viability with MMS 2.78e6; viability with MMS, replicate 1 = 3.63e6.
Knock-down of CG32830 (retired record) [DRSC01162] came out at: mean viability with MMS 3.02e6; viability with MMS, replicate 1 = 3.53e6.
CG32830 (retired record) [DRSC23151] scored mean viability with MMS 3.65e6; viability with MMS, replicate 1 = 4.13e6.
Depletion of CG13471 [DRSC10015] came out at: mean viability with MMS 3.53e6; viability with MMS, replicate 1 = 4.05e6.
Against Obp49a (Odorant-binding protein 49a) [DRSC22562], the entry reads mean viability with MMS 3.72e6; viability with MMS, replicate 1 = 4.11e6.
For CG4763 [DRSC04009], the values are mean viability with MMS 3.56e6; viability with MMS, replicate 1 = 4.05e6.
CG4763 [DRSC04487] showed mean viability with MMS 3.41e6; viability with MMS, replicate 1 = 3.88e6.
After knock-down of CG17744 [DRSC10286], the screen gave mean viability with MMS 3.52e6; viability with MMS, replicate 1 = 3.98e6.
With knock-down of Doc1 (Dorsocross1) [DRSC11146], the record shows mean viability with MMS 3.49e6; viability with MMS, replicate 1 = 3.89e6.
GlcAT-I (Glucuronyltransferase I) [DRSC17307] showed mean viability with MMS 3.51e6; viability with MMS, replicate 1 = 4.01e6.
For Pgm2a (Phosphoglucomutase 2a) [DRSC07068], the values are mean viability with MMS 3.60e6; viability with MMS, replicate 1 = 3.97e6.
With knock-down of CG7126 [DRSC16201], the record shows mean viability with MMS 3.39e6; viability with MMS, replicate 1 = 3.75e6.
After knock-down of Cep290 (Centrosomal protein 290kDa) [DRSC08359], the screen gave mean viability with MMS 3.50e6; viability with MMS, replicate 1 = 3.91e6.
Knock-down of CG15431 [DRSC00446] came out at: mean viability with MMS 3.56e6; viability with MMS, replicate 1 = 4.00e6.
CG14933 + CG42486 [DRSC02415] showed mean viability with MMS 3.34e6; viability with MMS, replicate 1 = 3.77e6.
Knock-down of CG6294 + CG6299 + CG15642 [DRSC19981] resulted in: mean viability with MMS 3.64e6; viability with MMS, replicate 1 = 4.07e6.
Depletion of homer [DRSC03547] gave: mean viability with MMS 3.50e6; viability with MMS, replicate 1 = 4.03e6.
CG30495 [DRSC06703] showed mean viability with MMS 3.56e6; viability with MMS, replicate 1 = 4.01e6.
With knock-down of Cpr31A (Cuticular protein 31A) [DRSC02779] the results were mean viability with MMS 3.43e6; viability with MMS, replicate 1 = 3.83e6.
CG4455 [DRSC01983] showed mean viability with MMS 3.48e6; viability with MMS, replicate 1 = 3.92e6.
Against CG4455 [DRSC21684], the entry reads mean viability with MMS 3.58e6; viability with MMS, replicate 1 = 4.05e6.
Depletion of CG17776 [DRSC18136] resulted in: mean viability with MMS 3.66e6; viability with MMS, replicate 1 = 4.08e6.
Depletion of AttC (Attacin-C) [DRSC06886] resulted in: mean viability with MMS 3.56e6; viability with MMS, replicate 1 = 4.08e6.
exex (extra-extra) [DRSC10972] showed mean viability with MMS 3.61e6; viability with MMS, replicate 1 = 4.14e6.
After knock-down of CG18294 [DRSC09891], the record shows mean viability with MMS 3.66e6; viability with MMS, replicate 1 = 4.09e6.
Depletion of Etl1 [DRSC02911] resulted in: mean viability with MMS 3.56e6; viability with MMS, replicate 1 = 4.14e6.
Against upd3 (unpaired 3) [DRSC19636], the entry reads mean viability with MMS 3.57e6; viability with MMS, replicate 1 = 3.98e6.
Depletion of upd3 (unpaired 3) [DRSC19968] came out at: mean viability with MMS 3.61e6; viability with MMS, replicate 1 = 4.02e6.
With knock-down of upd3 (unpaired 3) [DRSC22169] the results were mean viability with MMS 3.37e6; viability with MMS, replicate 1 = 3.93e6.
cos (costa) [DRSC07598] scored mean viability with MMS 3.74e6; viability with MMS, replicate 1 = 4.24e6.
With knock-down of CG9920 [DRSC16578], the record shows mean viability with MMS 3.80e6; viability with MMS, replicate 1 = 4.57e6.
For rdo (reduced ocelli) [DRSC02452], the entry reads mean viability with MMS 3.33e6; viability with MMS, replicate 1 = 3.68e6.
Knock-down of TfIIA-S (Transcription-factor-IIA-S) [DRSC16883] resulted in: mean viability with MMS 3.65e6; viability with MMS, replicate 1 = 4.08e6.
Against Act87E (Actin 87E) [DRSC22578] the deposit lists mean viability with MMS 3.61e6; viability with MMS, replicate 1 = 4.08e6.
Silencing of NT1 (Neurotrophin 1) [DRSC08530] gave: mean viability with MMS 3.53e6; viability with MMS, replicate 1 = 4.03e6.
Against NT1 (Neurotrophin 1) [DRSC22895], the entry reads mean viability with MMS 3.36e6; viability with MMS, replicate 1 = 3.90e6.
Against stretch (retired record) [DRSC14347], the entry reads mean viability with MMS 3.05e6; viability with MMS, replicate 1 = 3.65e6.
Knock-down of stretch (retired record) [DRSC14512] resulted in: mean viability with MMS 3.61e6; viability with MMS, replicate 1 = 4.16e6.
stretch (retired record) [DRSC14541] showed mean viability with MMS 3.72e6; viability with MMS, replicate 1 = 4.23e6.
With knock-down of stretch (retired record) [DRSC14542], the screen gave mean viability with MMS 3.56e6; viability with MMS, replicate 1 = 4.05e6.
Against stretch (retired record) [DRSC14543] the deposit lists mean viability with MMS 3.62e6; viability with MMS, replicate 1 = 4.09e6.
For stretch (retired record) [DRSC23038], the values are mean viability with MMS 3.65e6; viability with MMS, replicate 1 = 4.24e6.

Reformatted: results already given
upd3 (unpaired 3) [DRSC19636]
- mean viability with MMS: 3.57e6
- viability with MMS, replicate 1: 3.98e6

upd3 (unpaired 3) [DRSC19968]
- mean viability with MMS: 3.61e6
- viability with MMS, replicate 1: 4.02e6

upd3 (unpaired 3) [DRSC22169]
- mean viability with MMS: 3.37e6
- viability with MMS, replicate 1: 3.93e6

cos (costa) [DRSC07598]
- mean viability with MMS: 3.74e6
- viability with MMS, replicate 1: 4.24e6

CG9920 [DRSC16578]
- mean viability with MMS: 3.80e6
- viability with MMS, replicate 1: 4.57e6

rdo (reduced ocelli) [DRSC02452]
- mean viability with MMS: 3.33e6
- viability with MMS, replicate 1: 3.68e6

TfIIA-S (Transcription-factor-IIA-S) [DRSC16883]
- mean viability with MMS: 3.65e6
- viability with MMS, replicate 1: 4.08e6

Act87E (Actin 87E) [DRSC22578]
- mean viability with MMS: 3.61e6
- viability with MMS, replicate 1: 4.08e6
